# Where “and” joins values, the source holds several entries; their conditions need not be identical. Equal values may be shown once. Out of some 400,000 compounds screened, about 13,000 (3.2%) were called active. The inconclusive results got no clear call from the source; some entries with a clear call stand among them for comparison. Calls follow the shape of the dose curve; as a rule, active = well fitted cell-killing curve with a large enough effect; inconclusive = small, poorly fitted or top-dose-only effect, or effect the other way; inactive = flat fitted curve, though single readings scatter. Potencies of inconclusive entries are doubtful fits and often do not repeat.
# Experiment: qHTS assay for MDR1-selective chemotherapeutics: Primary screen using the drug-selected MDR subline cells KB-V1; also: nearly all actives have a fitted effect of over 60% in size
# Conditions: KB-V1 MDR cells viability, CellTiter-Glo, 72 h; activity change, negative = cytotoxicity: at 46.1 µM (top of the series)
# How it was run: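 Following 72 h at 37 degrees C with compound, KB-V1 cell viability was read by CellTiter-Glo luminescence, medium being phenol-red-free DMEM plus 10% FBS; concentration-response parameters came from normalized, curve-fitted qHTS data.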
# % is scaled to controls: 0 for no effect and ±100 for the full control effect; potency is read from the fitted curve at half-maximal effect.
SMILES,Potency,"activity change, negative = cytotoxicity"
O=C(Nc1cc(S(=O)(=O)N2CCOCC2)ccc1N1CCOCC1)c1ccc([N+](=O)[O-])s1,"inconclusive: 18.4 µM [cytotoxic, single point]",–
CCC(C)Cn1c(COc2ccc(OC)cc2)nc2ccccc21 (stereo not given),–,inactive: -17.3%
COC(=O)COc1ccc(S(=O)(=O)NCc2ccc3c(c2)OCO3)cc1C,"inconclusive: 25.9 µM [rising, single point]",–
COc1ccc(NC(=O)COC(=O)CC23CC4CC(CC(C4)C2)C3)c([N+](=O)[O-])c1,"inconclusive: 14.6 µM [cytotoxic, partial curve, poor fit]",–
CCN1CCN(CCC(=O)Nc2ccc(C)cc2)CC1,"inconclusive: 23.1 µM [rising, single point]",–
CCSc1nc2ccccc2c(=O)n1Cc1ccc(F)cc1,"inconclusive: 29.1 µM [cytotoxic, single point]",–
CC(/C=N/NC(=O)Cn1cnc2c1c(=O)n(C)c(=O)n2C)=C\c1ccco1,–,inactive: 0%
CCCCOc1ccc(NC(=O)CSc2ccc(C(=O)O)cn2)cc1,"inconclusive: 8.2 µM [rising, partial curve, poor fit]",–
COc1ccccc1CNC(=O)COC(=O)c1ccccc1-c1ccccc1,"inconclusive: 8.2 µM [cytotoxic, partial curve]",–
COc1ccc(NC(=O)CCc2nc3cccnc3n2Cc2cccs2)c(OC)c1,"inconclusive: 23.1 µM [cytotoxic, single point]",–
CCOC(=O)C1(CC2CC2)CCN(S(=O)(=O)/C=C/c2ccccc2)CC1,"inconclusive: 18.4 µM [cytotoxic, single point]",–
CCOC(=O)c1ccc(NC(=O)Nc2cccc(OCc3cc(=O)n4ccc(C)cc4n3)c2)cc1,"inconclusive: 0.0461 µM [rising, full curve]",–
Cc1ccccc1/C=c1\s/c(=C\C(=O)C(C)(C)C)[nH]c1=O,"inconclusive: 2.91 µM [cytotoxic, full curve, poor fit]",–
CCOC(=O)Cc1csc(NC(=O)Cc2ccc([N+](=O)[O-])cc2)n1,"inconclusive: 20.6 µM [cytotoxic, partial curve, poor fit]",–
CCOC(=O)C1=C(N)Oc2cc(O)ccc2C1c1ccc(Br)cc1 (stereo not given),"inconclusive: 29.1 µM [rising, single point]",–
CCOC(=O)C1=C(C)N(C)C(=O)NC1c1c(OC)ccc2ccccc12 (stereo not given),"inconclusive: 20.6 µM [cytotoxic, single point]",–
COC(=O)C(C(=O)OC)c1ccccc1NS(=O)(=O)c1c(C)cc(C)cc1C,"inconclusive: 18.4 µM [cytotoxic, single point]",–
CC(C)(C)c1ccc(NC(=O)COC(=O)CCN2C(=O)c3cccc([N+](=O)[O-])c3C2=O)cc1,"inconclusive: 20.6 µM [rising, single point]",–
CCN(CC)C(=O)Cn1cc(SCC(=O)NC2CCCCC2)c2ccccc21,"inconclusive: 29.1 µM [cytotoxic, single point]",–
CC1=CC(C)(C)n2c(O)c(N=NC(N)=S)c3cccc1c32,"inconclusive: 3.66 µM [cytotoxic, partial curve, poor fit]",–
CSc1nc2c(cnn2-c2ccc(C)c(C)c2)c(=O)[nH]1,"inconclusive: 0.651 µM [cytotoxic, full curve, poor fit]",–
CCN(C(=O)CN1C(=O)NC(c2ccccc2)(c2ccccc2)C1=O)c1ccccc1,"inconclusive: 0.58 µM [cytotoxic, full curve, poor fit]",–
CCCCn1c(N)c(N(CC(C)C)C(=O)c2cnccn2)c(=O)[nH]c1=O,–,inactive: 1.67%
O=c1c2ccccc2ncn1-c1ccc2c(c1)OCCO2,"inconclusive: 23.1 µM [cytotoxic, single point]",–

SMILES,Potency,"activity change, negative = cytotoxicity"
COc1ccc(C(=O)Nc2ccc3nc(N4CCN(C)CC4)cc(C)c3c2)c(OC)c1,–,inactive: -8.88%
CC(=O)Nc1ccc(S(=O)(=O)NNC(=O)CCC(=O)NCc2ccccc2)cc1,"inconclusive: 16.4 µM [rising, partial curve]",–
Cc1ccc2nc(SCC(=O)Nc3ccc4[nH]c(=O)[nH]c4c3)[nH]c2c1,"inconclusive: 29.1 µM [rising, single point]",–
CC(C)CCSc1nc2c(c(=O)n(C)c(=O)n2C)n1Cc1ccccc1Cl,"inconclusive: 29.1 µM [rising, single point]",–
CCN1CCN(C(=O)N(CC(=O)Nc2ccc(C(N)=O)cc2)S(=O)(=O)c2ccc(C)cc2)CC1,–,inconclusive: 28%
O=c1[nH]c2cc3c(cc2cc1CN(CCO)S(=O)(=O)c1ccccc1Cl)OCCO3,–,inconclusive: 45.7%
O=C(NC(=S)NCCC1=CCCCC1)c1ccco1,"inconclusive: 29.1 µM [cytotoxic, single point]",–
CCOc1cc(C2C(C(=O)c3ccc(C)o3)=C(O)C(=O)N2CCc2ccccc2)ccc1O (stereo not given),–,inactive: 1.32%
Cc1ccc(CN2C(=O)SC(Nc3ccccc3)C2=O)cc1 (stereo not given),"inconclusive: 29.1 µM [rising, single point]",–
Cc1cc(Br)ccc1NC(=O)CN(C)C(=O)CSC(=S)N1CCCC1,active: 13 µM,–
COc1cccc(N2CCN(C(=S)Nc3cccc(C)c3)CC2)c1,–,inactive: -1.11%
CC1(C)CC(=O)C(C(C2=C(O)CC(C)(C)CC2=O)c2cccc(O)c2)C(=O)C1 (stereo not given),"inconclusive: 20.6 µM [cytotoxic, single point]",–
CN1CCN(c2oc(-c3ccccc3F)nc2S(=O)(=O)c2ccc(Cl)cc2)CC1,"inconclusive: 3.66 µM [cytotoxic, full curve]",–
O=C(COC(=O)c1ccccc1C(=O)c1ccccc1)NCCc1ccccc1,"inconclusive: 29.1 µM [cytotoxic, single point]",–
Cc1cc(C)c(C2C(C#N)=C(N)Oc3n[nH]c(C)c32)cc1CN1CCOCC1 (stereo not given),–,inactive: -16.7%
N#C/C(=C\c1cccc(O)c1)C(=O)N1CCCCC1,"inconclusive: 29.1 µM [rising, single point]",–
O=C1C=C(Nc2ccc(Cl)cc2)CC(c2ccccc2)C1 (stereo not given),"inconclusive: 4.61 µM [cytotoxic, full curve, poor fit]",–
COc1ccccc1Nc1nc(-c2c(C)nc3ncccn23)cs1,active: 7.31 µM,–
Nc1nc(=S)n(-c2ccccc2)[nH]1,–,inactive: 4.01%
COc1cc(OC)c(NC(=O)/C=C/C(=O)O)cc1Cl,–,inactive: 1.29%
CCCCn1c(-c2ccc(Cl)cc2)nc2c(=O)n(C)c(=O)[nH]c21,"inconclusive: 16.4 µM [rising, partial curve, poor fit]",–
NC(=NCCc1ccccc1)NS(=O)(=O)c1ccc(F)cc1,active: 16.4 µM,–
Cc1ccc(NC(=O)NC2CCCCC2)c(C)c1,–,inactive: -17%
CC(=O)Oc1ccc2c(c1)C(=O)CCCCCC(=O)O2,–,inactive: -5.47%

SMILES,Potency,"activity change, negative = cytotoxicity"
O=C(Cc1ccccc1[N+](=O)[O-])NCC1(c2cccc3c2OCO3)OCCO1,active: 18.4 µM,–
Cc1nc(Oc2ccccc2)c2oc3ccccc3c2n1,"inconclusive: 32.6 µM [cytotoxic, single point]",–
COc1ccc(C(C)=O)cc1Cn1c(C)c(C(=O)NCc2ccc3c(c2)OCO3)sc1=O,"inconclusive: 7.31 µM [cytotoxic, partial curve]",–
CSc1cccc(NC(=S)N(Cc2ccccc2)Cc2ccccn2)c1,"inconclusive: 14.6 µM [cytotoxic, partial curve]",–
COc1cc(C2c3cc4c(cc3C(O)C3COC(=O)C23)OCO4)cc(OC)c1OC (stereo not given),active: 4.11 µM and active: 231 nM,–
CCOC(=O)Cn1c(=O)oc2cc(S(=O)(=O)N3CCN(C(=O)OCC)CC3)ccc21,–,inactive: 11.3%
Cc1cccc(-c2cc(C(=O)Nc3cccnc3)c3ccccc3n2)c1,"inconclusive: 7.31 µM [cytotoxic, partial curve]",–
Cc1cc2nc(-c3ccc(F)cc3)c(Cc3cccc(Cl)c3)n2c(C)c1Br,"inconclusive: 23.1 µM [cytotoxic, partial curve]",–
Cc1nc(SC(C)C(=O)NCC2CCCO2)c2cc(-c3ccccc3)sc2n1 (stereo not given),"inconclusive: 2.06 µM [cytotoxic, full curve]",–
N/C(=N\OC(=O)c1ccc(Cl)cc1)c1cccnc1,"inconclusive: 29.1 µM [rising, single point]",–
Cc1cc(C=C2C(=O)c3ccccc3C2=O)c(C)n1-c1ccc(Cl)cc1,active: 16.4 µM,–
O=C(CNC(=O)c1ccc(Br)cc1)OCc1cc([N+](=O)[O-])cc2c1OCOC2,–,inactive: -2.21%
COc1cnc(-c2ccccn2)nc1NC(C)C,active: 7.31 µM,–
O=C(NCCc1ccccc1)c1c(O)c2ccccc2[nH]c1=O,–,inactive: 2.49%
COc1cc2cc(CCCOC(=O)c3cc(OC)c(OC)c(OC)c3)oc(=O)c2cc1OC,"inconclusive: 2.91 µM [cytotoxic, partial curve, poor fit]",–
COc1cccc(CN(C)Cc2c(O)ccc3ccccc23)c1,–,inactive: -18.8%
CN(C)Cc1cc(O)c(CN(C)C)cc1O,–,inactive: 14.5%
COc1ccc(C(=O)NC(=S)Nc2ccc(CN3CCOCC3)cc2)cc1,"inconclusive: 29.1 µM [cytotoxic, single point]",–
COC(=O)[C@@]12C[C@@H](CC(=O)NCCCCc3ccccc3)C(=O)N(Cc3ccccc3)C1=CCC(C)(C)C2,active: 23.1 µM,–
O=C(C/C(=N\NC(=O)c1ccccc1Br)C(F)(F)F)c1cccs1,"inconclusive: 25.9 µM [cytotoxic, single point]",–
CCN1CCCC1CN(Cc1cc2ccc(C)cc2[nH]c1=O)C(=S)Nc1ccccc1OC (stereo not given),–,inactive: -6.8%
COc1ccc(S(=O)(=O)Nc2ccc3cn[nH]c3c2)cc1C,"inconclusive: 20.6 µM [cytotoxic, single point]",–

# Random excerpt: 2 entries already listed
SMILES,Potency,"activity change, negative = cytotoxicity"
CCOC(=O)Cn1c(=O)oc2cc(S(=O)(=O)N3CCN(C(=O)OCC)CC3)ccc21,–,inactive: 11.3%
COC(=O)[C@@]12C[C@@H](CC(=O)NCCCCc3ccccc3)C(=O)N(Cc3ccccc3)C1=CCC(C)(C)C2,active: 23.1 µM,–

# Reference: PubChem BioAssay AID1347076 (National Center for Advancing Translational Sciences (NCATS), 2019)
